Laboratory results published in patent CN117886935A.
No constants are given. Whether binding was seen depends on the method and setting. Some results given as binding are weak or reduced against the parent protein; the word gives no strength.

By UniProt entry, the sequences of proteins in these tests, tags left out. Residues count along the entry.
UniProt P07333, residues 20-512: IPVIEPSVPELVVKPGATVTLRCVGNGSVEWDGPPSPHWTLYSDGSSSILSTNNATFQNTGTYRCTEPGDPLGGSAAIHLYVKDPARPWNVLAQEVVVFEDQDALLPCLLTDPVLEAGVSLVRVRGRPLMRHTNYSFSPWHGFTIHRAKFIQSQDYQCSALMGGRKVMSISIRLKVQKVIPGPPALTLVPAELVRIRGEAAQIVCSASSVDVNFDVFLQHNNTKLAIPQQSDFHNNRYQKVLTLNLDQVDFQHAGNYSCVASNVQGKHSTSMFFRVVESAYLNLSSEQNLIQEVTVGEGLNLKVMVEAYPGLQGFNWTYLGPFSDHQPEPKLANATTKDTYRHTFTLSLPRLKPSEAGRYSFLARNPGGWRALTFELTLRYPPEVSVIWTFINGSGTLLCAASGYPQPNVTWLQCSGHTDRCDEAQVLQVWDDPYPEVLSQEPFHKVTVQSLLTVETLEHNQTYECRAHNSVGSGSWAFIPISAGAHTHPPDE

B1: hz73 (antibody, V domains shown)
VH: EVQLVQSGAEVKKPGASVKVSCKASGYTFTDYNMDWVRQAPGQGLEWMGDIIPNYDSATYNQKFKGRVTMTRDTSTSTVYMELSSLRSEDTAVYYCARKGGGYVNWYFDVWGQGTTVTVSS
VL: DIQMTQSPSSLSASVGDRVTITCHASQNINVWLSWYQQKPGKAPKLLIYKASNLHTGVPSRFSGSGSGTDFTFTISSLQPEDIATYYCQQGESYPYTFGGGTKVEIK
B2: ch73 (antibody, human IgG1, kappa, V domains shown)
VH: EVQLQQFGAELVKPGASVKISCKASGYTFTDYNMDWMKQSHGKSLEWIGDIIPNYDSATYNQKFKGKATLTVDRSSSTAYMELRSLSSEDTAVYYCARKGGGYVNWYFDVWGAGTTVTVSS
VL: DIQMNQSPSSLSASLGDTITITCHASQNINVWLSWYQQKPGNIPKLLIYKASNLHTGVPSRFSGSGSGTGFTLTISSLQPEDIATYYCQQGESYPYTFGGGTKLEIKR

Target: 人CSF-1R-his重组蛋白 (human CSF-1R-his recombinant protein) (human) (UniProt P07333)
Experiment: BLI (ForteBio)

Binder | binding
B1 | binds
B2 | binds
